We go through 2 molecules from patent US20260125455A1.

Results are given in words; binding and its absence hold for the method and conditions named. A result given as binding can be weak or reduced; the word gives no strength.

In test [1] the target is C6: 1-934_10xHis (human). The test can be described thus: ELISA, wells coated with the C6 construct, 1C9 detected with HRP goat anti-mouse IgG; duplicate wells.
Test [2] has as its target C6Δ1-79: SP_79-934_10xHis (human). The test is described as above.
Test [3] addresses Protein G (Octet biosensors). The test can be described thus: BLI (Octet RED384), loading on biosensors. (In BLI a coated tip is dipped into the sample, and binding shifts an interference pattern.)

B1: MoC601 MoG1K (mouse anti-C6 monoclonal antibody 1C9) (antibody, V domains shown)
VH: QVQLQQSGAELVKPGASVKISCKASGYAFSDYWMNWVKQRPGKGLEWIGQIYPGDDDTNYNGKFKGKATLTADKSSSTAYMQLSSLTSEDSAVYFCAREGYYGYTYVEYFDVWGTGTTVTVSS
VL: QIVLTQSPAIMSVSPGEKVTLTCSASSSVSYMHWYQQKSGTSPKRWIYDTSKLASGVPARFSGSGSGTSYSLTISSMEAEDAATYYCQQWTSNPLTFGAGTKLELR
On to B1, for which the binding entry in test [1] and in test [2] was “binds” each time.

B2: MoC601 HuG4K (chimeric C601 antibody) (antibody, human IgG4 S228P, kappa, V domains shown)
VH: B1 VH
VL: QIVLTQSPAIMSVSPGEKVTLTCSASSSVSYMHWYQQKSGTSPKRWIYDTSKLASGVPARFSGSGSGTSYSLTISSMEAEDAATYYCQQWTSNPLTFGAGTKLELRR
For B2, the binding entry in test [3] was “binds”.
